Measured values published in PMC10782585.
These are yes or no findings as the source states them, for the method shown. Binding seen in cells or lysates may run through a third protein. Some results given as binding are weak or reduced against the parent protein; the word gives no strength. For part of these data: Tags and fused reporters may be left off the sequences shown.

Protein sequences, listed by entry. Tags and fused reporters are not part of them.
UniProt Q00987: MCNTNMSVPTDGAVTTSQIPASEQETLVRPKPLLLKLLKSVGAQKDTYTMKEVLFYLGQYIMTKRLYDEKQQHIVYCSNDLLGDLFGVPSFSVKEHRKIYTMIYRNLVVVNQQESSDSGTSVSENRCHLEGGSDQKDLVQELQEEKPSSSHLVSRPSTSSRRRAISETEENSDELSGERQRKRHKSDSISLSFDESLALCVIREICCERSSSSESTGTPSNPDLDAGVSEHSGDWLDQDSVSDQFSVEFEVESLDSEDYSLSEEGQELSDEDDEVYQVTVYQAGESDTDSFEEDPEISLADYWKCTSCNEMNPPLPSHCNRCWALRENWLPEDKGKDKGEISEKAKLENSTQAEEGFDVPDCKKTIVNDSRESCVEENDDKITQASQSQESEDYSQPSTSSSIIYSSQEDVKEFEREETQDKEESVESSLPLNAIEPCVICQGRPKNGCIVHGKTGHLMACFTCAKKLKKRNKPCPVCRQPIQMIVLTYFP

Tests used:
[1] = molecular target: endogenous AGPS (human (endogenous in prostate cancer cells, line not stated)) (UniProt O00116); assay: co-IP; endogenous AGPS and MDM2; cell line and precipitating antibody not told
[2] = molecular target: T1, Flag-tagged AGPS Y451A mutant (UniProt O00116); assay: co-IP; Flag-tagged AGPS (wild type or mutant) and Myc-tagged MDM2 ectopically expressed, DU145; lysate shaken overnight at 4 °C with anti-Flag antibody and protein A + G agarose, blot; cells treated with MG132 (20 μM, 8 h); also with λpp (1U/ml, 2 h) or after NTRK1 knockdown
T1 sequence: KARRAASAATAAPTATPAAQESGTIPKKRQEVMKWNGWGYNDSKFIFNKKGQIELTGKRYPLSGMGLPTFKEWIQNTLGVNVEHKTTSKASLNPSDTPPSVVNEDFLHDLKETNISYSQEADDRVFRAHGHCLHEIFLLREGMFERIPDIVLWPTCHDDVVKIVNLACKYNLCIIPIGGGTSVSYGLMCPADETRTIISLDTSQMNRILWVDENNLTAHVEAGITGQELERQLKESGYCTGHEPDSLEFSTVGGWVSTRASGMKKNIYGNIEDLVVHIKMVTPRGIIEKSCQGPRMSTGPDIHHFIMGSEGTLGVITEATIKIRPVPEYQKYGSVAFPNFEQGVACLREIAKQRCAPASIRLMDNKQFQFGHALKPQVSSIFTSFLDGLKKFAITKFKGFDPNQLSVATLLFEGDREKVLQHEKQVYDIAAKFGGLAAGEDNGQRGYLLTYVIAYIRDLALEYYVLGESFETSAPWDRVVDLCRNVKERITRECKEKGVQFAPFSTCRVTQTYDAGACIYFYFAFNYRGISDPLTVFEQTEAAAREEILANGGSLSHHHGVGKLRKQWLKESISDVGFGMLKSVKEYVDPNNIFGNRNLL

[3] = molecular target: Flag-tagged wild-type AGPS (alkylglycerone phosphate synthase) (UniProt O00116); assay: as above

binding [1]	binding [2]	binding [3]	Substance
binds	–	–	endogenous MDM2 (from UniProt Q00987 1-491) (enzyme)
–	binds	binds	Myc-tagged MDM2 (mouse double minute 2) (from UniProt Q00987 1-491) (enzyme)
